In PMC12859066 one finds binding data, which are given here for one substance.

The chains behind the UniProt entries cited, without tags or fusion partners.
UniProt P36402: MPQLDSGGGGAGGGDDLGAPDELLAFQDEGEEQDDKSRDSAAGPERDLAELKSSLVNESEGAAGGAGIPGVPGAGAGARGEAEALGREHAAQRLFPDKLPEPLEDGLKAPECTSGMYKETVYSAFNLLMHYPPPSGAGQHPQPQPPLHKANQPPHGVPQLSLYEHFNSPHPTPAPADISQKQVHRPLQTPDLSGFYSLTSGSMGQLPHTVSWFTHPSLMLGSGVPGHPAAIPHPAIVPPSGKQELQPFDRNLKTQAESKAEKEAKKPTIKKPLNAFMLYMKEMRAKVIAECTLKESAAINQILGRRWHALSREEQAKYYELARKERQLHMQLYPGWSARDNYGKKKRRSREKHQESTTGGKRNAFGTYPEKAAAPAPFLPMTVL
UniProt P35222: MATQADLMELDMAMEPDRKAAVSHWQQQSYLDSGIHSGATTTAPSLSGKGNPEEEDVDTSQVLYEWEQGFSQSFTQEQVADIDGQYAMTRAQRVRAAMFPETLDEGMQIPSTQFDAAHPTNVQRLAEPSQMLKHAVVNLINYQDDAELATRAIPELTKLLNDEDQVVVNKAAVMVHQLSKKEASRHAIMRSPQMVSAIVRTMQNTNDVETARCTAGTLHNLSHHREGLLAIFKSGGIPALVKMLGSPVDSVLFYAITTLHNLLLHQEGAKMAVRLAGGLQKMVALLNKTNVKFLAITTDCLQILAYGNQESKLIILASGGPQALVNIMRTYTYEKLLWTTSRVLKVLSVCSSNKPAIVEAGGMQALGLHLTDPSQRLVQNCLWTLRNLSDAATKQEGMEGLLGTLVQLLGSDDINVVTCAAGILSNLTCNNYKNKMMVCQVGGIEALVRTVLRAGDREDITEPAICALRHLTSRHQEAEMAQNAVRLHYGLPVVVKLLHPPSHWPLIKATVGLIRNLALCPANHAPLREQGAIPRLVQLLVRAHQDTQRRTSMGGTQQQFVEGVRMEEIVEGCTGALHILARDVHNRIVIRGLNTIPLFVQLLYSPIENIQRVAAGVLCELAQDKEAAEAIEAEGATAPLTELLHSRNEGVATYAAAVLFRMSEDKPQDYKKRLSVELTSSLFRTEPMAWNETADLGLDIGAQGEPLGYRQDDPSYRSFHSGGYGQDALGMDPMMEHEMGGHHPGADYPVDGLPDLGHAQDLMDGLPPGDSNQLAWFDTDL

No constants are given. Whether binding was seen depends on the method and setting. In cells and extracts the contact can be indirect. Some entries that bind do so weakly or less than the wild type.

The target of this experiment is TCF7 (human (endogenous in ESC-RPE cells)) (UniProt P36402). The experiment can be described thus: co-IP; Protein A + G magnetic beads with 5 μg antibodies (against TCF7, β-Catenin) or normal IgG; 5 × 10^6 cells lysed in IP lysis buffer, incubated with the beads at 4 °C overnight; washed with TBS; Western blotting.

Regarding β-catenin (from UniProt P35222 1-781), the binding entry was “binds”.
